{"source": "PubChem BioAssay AID652259 (Drosophila RNAi Screening Center, 2013)", "aim": "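Genome-wide hunt for genes that control Wingless pathway activity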 (primary screen)", "system": "Drosophila clone 8 imaginal disc epithelial cells", "knock-down reagent": "long dsRNA against Drosophila genes", "challenge": "pathway stimulated by co-transfected Wingless expression plasmid", "measured": "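Dual luciferase reads per well after Wingless plasmid stimulation: reporter firefly light and Renilla control light; activity is firefly divided by Renilla, a ratio not deposited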", "direction": "firefly reporter light: higher = more Wg reporter light, before normalisation; Renilla control light: higher = more transfected or surviving cells", "active means": "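Strong candidates differ from their plate mean by at least two out of four per-plate statistical tests; weak candidates meet just one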", "meaning of the calls": "active = candidate regulator (raises or lowers reporter); inactive = not a candidate", "note": "The deposit covers about 22,000 reagents; below is a random part of those with a known target gene and a result. Of all reagents, 233 (1.1%) were called active. 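Light values are raw, unnormalised plate reads; the ratio scores behind the reporter calls were not deposited.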 A plus sign joins genes that one reagent is predicted to hit. Not given: the amount of reagent, the time to read-out, the dose of the treatment."}
{"Gene": "CG42375 + CG9288", "DRSC id": "DRSC16468", "firefly reporter light, replicate 1": 12247, "Renilla control light, replicate 1": 4743, "outcome": "inactive"}
{"Gene": "Blm + CG14721", "DRSC id": "DRSC14943", "firefly reporter light, replicate 1": 20216, "Renilla control light, replicate 1": 4961, "outcome": "inactive"}
{"Gene": "CG8299", "DRSC id": "DRSC07139", "firefly reporter light, replicate 1": 4424, "Renilla control light, replicate 1": 1731, "outcome": "inactive"}
{"Gene": "mEFTs", "DRSC id": "DRSC02953", "firefly reporter light, replicate 1": 9735, "Renilla control light, replicate 1": 3259, "outcome": "inactive"}
{"Gene": "Naa40", "DRSC id": "DRSC16265", "firefly reporter light, replicate 1": 7127, "Renilla control light, replicate 1": 3203, "outcome": "inactive"}
{"Gene": "CG31760", "DRSC id": "DRSC02590", "firefly reporter light, replicate 1": 1542, "firefly reporter light, replicate 2": 5771, "Renilla control light, replicate 1": 612, "Renilla control light, replicate 2": 1717, "outcome": "inactive"}
{"Gene": "Myd88", "DRSC id": "DRSC06815", "firefly reporter light, replicate 1": 13516, "Renilla control light, replicate 1": 2405, "outcome": "inactive"}
{"Gene": "CG32246", "DRSC id": "DRSC08115", "firefly reporter light, replicate 1": 1434, "Renilla control light, replicate 1": 736, "outcome": "inactive"}
{"Gene": "CG32523", "DRSC id": "DRSC20510", "firefly reporter light, replicate 1": 18295, "Renilla control light, replicate 1": 12950, "outcome": "inactive"}
{"Gene": "CG13050", "DRSC id": "DRSC09931", "firefly reporter light, replicate 1": 9671, "Renilla control light, replicate 1": 4163, "outcome": "inactive"}
{"Gene": "CG43318", "DRSC id": "DRSC14999", "firefly reporter light, replicate 1": 15016, "Renilla control light, replicate 1": 3728, "outcome": "inactive"}
{"Gene": "MFS1", "DRSC id": "DRSC04115", "firefly reporter light, replicate 1": 2476, "firefly reporter light, replicate 2": 6138, "Renilla control light, replicate 1": 727, "Renilla control light, replicate 2": 1862, "outcome": "inactive"}
{"Gene": "NAAT1", "DRSC id": "DRSC18300", "firefly reporter light, replicate 1": 16885, "Renilla control light, replicate 1": 10608, "outcome": "inactive"}
{"Gene": "CG13315", "DRSC id": "DRSC09986", "firefly reporter light, replicate 1": 1408, "firefly reporter light, replicate 2": 7544, "Renilla control light, replicate 1": 1507, "Renilla control light, replicate 2": 3110, "outcome": "inactive"}
{"Gene": "MFS3", "DRSC id": "DRSC00664", "firefly reporter light, replicate 1": 3904, "firefly reporter light, replicate 2": 6709, "Renilla control light, replicate 1": 1264, "Renilla control light, replicate 2": 2544, "outcome": "inactive"}
{"Gene": "CG11403", "DRSC id": "DRSC18532", "firefly reporter light, replicate 1": 1603, "firefly reporter light, replicate 2": 6160, "Renilla control light, replicate 1": 731, "Renilla control light, replicate 2": 2152, "outcome": "inactive"}

The list goes on; the last 2 above are carried over.
{"Gene": "MFS3", "DRSC id": "DRSC00664", "firefly reporter light, replicate 1": 3904, "firefly reporter light, replicate 2": 6709, "Renilla control light, replicate 1": 1264, "Renilla control light, replicate 2": 2544, "outcome": "inactive"}
{"Gene": "CG11403", "DRSC id": "DRSC18532", "firefly reporter light, replicate 1": 1603, "firefly reporter light, replicate 2": 6160, "Renilla control light, replicate 1": 731, "Renilla control light, replicate 2": 2152, "outcome": "inactive"}
{"Gene": "CG10208", "DRSC id": "DRSC14211", "firefly reporter light, replicate 1": 20802, "Renilla control light, replicate 1": 15291, "outcome": "inactive"}
{"Gene": "betaTub97EF", "DRSC id": "DRSC15666", "firefly reporter light, replicate 1": 9319, "Renilla control light, replicate 1": 3424, "outcome": "inactive"}
{"Gene": "betaTub97EF", "DRSC id": "DRSC15667", "firefly reporter light, replicate 1": 8343, "Renilla control light, replicate 1": 3458, "outcome": "inactive"}
{"Gene": "betaTub97EF", "DRSC id": "DRSC15668", "firefly reporter light, replicate 1": 9724, "Renilla control light, replicate 1": 3969, "outcome": "inactive"}
{"Gene": "Grl58a", "DRSC id": "DRSC04145", "firefly reporter light, replicate 1": 3111, "firefly reporter light, replicate 2": 6496, "Renilla control light, replicate 1": 896, "Renilla control light, replicate 2": 2160, "outcome": "inactive"}
{"Gene": "TBC1D16", "DRSC id": "DRSC02841", "firefly reporter light, replicate 1": 3318, "firefly reporter light, replicate 2": 6952, "Renilla control light, replicate 1": 918, "Renilla control light, replicate 2": 2301, "outcome": "inactive"}
{"Gene": "clos", "DRSC id": "DRSC06240", "firefly reporter light, replicate 1": 3276, "firefly reporter light, replicate 2": 7755, "Renilla control light, replicate 1": 1130, "Renilla control light, replicate 2": 2746, "outcome": "inactive"}
{"Gene": "clos", "DRSC id": "DRSC06241", "firefly reporter light, replicate 1": 4450, "firefly reporter light, replicate 2": 11155, "Renilla control light, replicate 1": 1212, "Renilla control light, replicate 2": 4141, "outcome": "inactive"}
{"Gene": "clos", "DRSC id": "DRSC06778", "firefly reporter light, replicate 1": 2323, "firefly reporter light, replicate 2": 8247, "Renilla control light, replicate 1": 867, "Renilla control light, replicate 2": 2624, "outcome": "inactive"}
{"Gene": "clos", "DRSC id": "DRSC21857", "firefly reporter light, replicate 1": 4.42e5, "firefly reporter light, replicate 2": 3.99e5, "Renilla control light, replicate 1": 1.51e5, "Renilla control light, replicate 2": 1.65e5, "outcome": "inactive"}
{"Gene": "clos", "DRSC id": "DRSC22942", "firefly reporter light, replicate 1": 4.88e5, "firefly reporter light, replicate 2": 5.89e5, "Renilla control light, replicate 1": 2.65e5, "Renilla control light, replicate 2": 2.13e5, "outcome": "inactive"}
